For 25 molecules, TEAD-luciferase reporter activity results are on record in the supplement of paper PMC10735217.

Structures can show the parent of a compound that is named as a salt. The list shows a part of the results. This data set is noisy: repeats of one test often differ as much as different tests do.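 In a drug-repurposing library screen, luminescence reads luciferase driven by eight TEAD-binding elements, stably integrated into human kidney-derived cells. Compounds scoring over five robust Z scores above the plate mean are called hits.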

In the assay the test system is HEK293A TEAD-LUC reporter. Put plainly: TEAD-luciferase reporter activity (YAP activation), robust Z score vs plate; higher = stronger YAP/TEAD activation. Conditions: 24 h.

Consider `Oc1nc2ccccc2n1C1CCN(CCOc2ccccc2)CC1` [Oxiperomide], for which the TEAD-luciferase reporter activity by setting is: (compound concentration: 200 nM) inactive: -0.44; (compound concentration: 2 uM) inactive: -0.0726; (compound concentration: 10 uM) active: 10.4.

Turning to `CCn1c(=O)/c(=C2\Sc3ccccc3N2C)s/c1=C\c1cccc[n+]1CC`, the TEAD-luciferase reporter activity is inactive: -1.55 (compound concentration: 200 nM), inactive: -0.557 (compound concentration: 2 uM) and inactive: 1.47 (compound concentration: 10 uM).

`CCOC(=O)CN(CCN(CC(=O)OCC)Cc1ccccc1O)Cc1ccccc1O`: the TEAD-luciferase reporter activity is inactive: -2.4 (compound concentration: 200 nM), inactive: 1.98 (compound concentration: 2 uM) and inactive: 2.64 (compound concentration: 10 uM).

As for `O=C(Cn1ccnc1[N+](=O)[O-])NCC(F)(F)C(F)(F)F`, the TEAD-luciferase reporter activity was inactive: -1.18 (compound concentration: 200 nM), inactive: 0.409 (compound concentration: 2 uM) and inactive: -0.43 (compound concentration: 10 uM).

On to `NC(=O)OC1CC2CC3CC(C2)CC1C3` (stereo unspecified), for which the TEAD-luciferase reporter activity (compound concentration: 200 nM) was inactive: -0.886, the TEAD-luciferase reporter activity (compound concentration: 2 uM) is inactive: -1.19 and the TEAD-luciferase reporter activity (compound concentration: 10 uM) is inactive: -0.448.

As for `N#C[C@@H]1C[C@@H]2C[C@@H]2N1C(=O)[C@@H](N)[C@@]12C[C@@H]3C[C@@H](CC(O)(C3)C1)C2` [saxagliptin hydrochloride], the TEAD-luciferase reporter activity (compound concentration: 200 nM) is inactive: -1.41 and the TEAD-luciferase reporter activity (compound concentration: 10 uM) was inactive: -0.128.

As to `CC1(C)[C@@H](O[C@H]2O[C@H](C(=O)O)[C@@H](O)[C@H](O)[C@H]2O[C@@H]2O[C@H](C(=O)O)[C@@H](O)[C@H](O)[C@H]2O)CC[C@]2(C)[C@H]3C(=O)C=C4[C@@H]5C[C@@](C)(C(=O)O)CC[C@]5(C)CC[C@@]4(C)[C@]3(C)CC[C@@H]12` [Glycyrrhizinic acid], the TEAD-luciferase reporter activity is inactive: -1.76 (compound concentration: 200 nM), inactive: -0.726 (compound concentration: 2 uM) and inactive: 0.468 (compound concentration: 10 uM).

As for `O=C1Nc2ccc(F)c(F)c2[C@@](C#CC2CC2)(C(F)(F)F)N1`, the TEAD-luciferase reporter activity by setting is: (compound concentration: 200 nM) inactive: -1.17; (compound concentration: 2 uM) inactive: -0.297; (compound concentration: 10 uM) inactive: 0.627.

Consider `CO[C@H]1C[C@@H]2CC[C@@H](C)[C@@](O)(O2)C(=O)C(=O)N2CCCC[C@H]2C(=O)O[C@H]([C@H](C)C[C@@H]2CC[C@@H](O)[C@H](OC)C2)CC(=O)[C@H](C)/C=C(\C)[C@@H](O)[C@@H](OC)C(=O)[C@H](C)C[C@H](C)/C=C/C=C/C=C/1C` [Sirolimus], for which, for the setting “compound concentration: 2 uM”, the TEAD-luciferase reporter activity is inactive: 0.101.

As for `CO[C@H]1C[C@@H]2CC[C@@H](C)[C@@](O)(O2)C(=O)C(=O)N2CCCC[C@H]2C(=O)O[C@H]([C@H](C)C[C@@H]2CC[C@@H](O)[C@H](OC)C2)CC(=O)[C@H](C)/C=C(\C)[C@@H](O)[C@@H](OC)C(=O)[C@H](C)C[C@H](C)/C=C/C=C/C=C/1C` [Rapamycin], the TEAD-luciferase reporter activity by setting is: (compound concentration: 200 nM) inactive: 0.222; (compound concentration: 10 uM) inactive: 2.95.

Consider `O=C([O-])CN1CCN(CC(=O)[O-])CCN(C(CO)C(O)CO)CCN(CC(=O)[O-])CC1` (stereo unspecified) [gadobutrol], for which the TEAD-luciferase reporter activity (compound concentration: 200 nM) is inactive: -0.874, the TEAD-luciferase reporter activity (compound concentration: 2 uM) is inactive: -1.59 and the TEAD-luciferase reporter activity (compound concentration: 10 uM) is inactive: -0.962.

Regarding `CC(C)NCCN(C(C)C)S(=O)(=O)c1ccc(Cl)cc1Cl`, the TEAD-luciferase reporter activity is inactive: -1.24 (compound concentration: 200 nM), inactive: -0.517 (compound concentration: 2 uM) and inactive: 1.01 (compound concentration: 10 uM).

For the molecule `CNCCN1CCN(c2cccc(Cl)c2)C1=O`, the TEAD-luciferase reporter activity by setting is: (compound concentration: 200 nM) inactive: 2.94; (compound concentration: 2 uM) inactive: -0.453; (compound concentration: 10 uM) inactive: -0.546.

In the case of `Nc1ccc(S(=O)(=O)[N-]c2cncc(Cl)n2)cc1` [Sodium Sulfachloropyrazine Monohydrate], the TEAD-luciferase reporter activity reads like this: (compound concentration: 200 nM) inactive: -0.147; (compound concentration: 2 uM) inactive: 0.581; (compound concentration: 10 uM) inactive: 0.124.

As for `CNC(=O)c1ccc(-c2cc(Cl)cc(Cl)c2Cl)c(N)n1`, the TEAD-luciferase reporter activity runs as follows: (compound concentration: 200 nM) inactive: 0.798; (compound concentration: 2 uM) inactive: -0.591; (compound concentration: 10 uM) inactive: 1.21.

With `Cc1cc(NC(=O)/C(C#N)=C(\O)C2CC2)ccc1C(F)(F)F`, the TEAD-luciferase reporter activity was inactive: -0.706 (compound concentration: 200 nM), inactive: 0.452 (compound concentration: 2 uM) and inactive: 0.981 (compound concentration: 10 uM).

As to `Cc1cccc(C)c1OCC(=O)N[C@@H](Cc1ccccc1)[C@@H](O)C[C@H](Cc1ccccc1)NC(=O)[C@H](C(C)C)N1CCCNC1=O` [Lopinavir], the TEAD-luciferase reporter activity is, setting by setting: (compound concentration: 200 nM) inactive: -1.1; (compound concentration: 2 uM) inactive: 1.75; (compound concentration: 10 uM) inactive: -0.386.

As for `Cc1ccc(O)c2ncccc12`, the TEAD-luciferase reporter activity is inactive: -1.46 (compound concentration: 200 nM), inactive: -0.849 (compound concentration: 2 uM) and inactive: 2.01 (compound concentration: 10 uM).

Take `O=C1NC(=O)C(Cc2cccc(Oc3ccccc3)c2)S1` (stereo unspecified): the TEAD-luciferase reporter activity by setting is: (compound concentration: 200 nM) inactive: -1.37; (compound concentration: 2 uM) inactive: -0.811; (compound concentration: 10 uM) inactive: -0.152.

For `Cc1ccc(=O)n(-c2cccc(F)c2)c1` [Fluorofenidone], the TEAD-luciferase reporter activity reads like this: (compound concentration: 200 nM) inactive: 0.436; (compound concentration: 2 uM) inactive: -0.244; (compound concentration: 10 uM) inactive: 2.75.

As to `CCCCc1cc2c(=O)cc(C(=O)O)[nH]c2c2c(=O)cc(C(=O)O)[nH]c12` [Bufrolin], the TEAD-luciferase reporter activity was inactive: 0.92 (compound concentration: 200 nM), inactive: -0.163 (compound concentration: 2 uM) and inactive: 2.18 (compound concentration: 10 uM).

Regarding `CCC(C(N)=O)(C(N)=O)c1ccccc1`, the TEAD-luciferase reporter activity was inactive: -0.668 (compound concentration: 200 nM), inactive: 0.579 (compound concentration: 2 uM) and inactive: 1.36 (compound concentration: 10 uM).

With `Cc1ncc([N+](=O)[O-])n1CCO` [Metronidazole], the TEAD-luciferase reporter activity (compound concentration: 200 nM) was inactive: -0.823, the TEAD-luciferase reporter activity (compound concentration: 2 uM) is inactive: -1.36 and the TEAD-luciferase reporter activity (compound concentration: 10 uM) is inactive: -1.24.

As to `Nc1ccn([C@@H]2O[C@H](CO)C[C@@H]2F)c(=O)n1`, the TEAD-luciferase reporter activity (compound concentration: 200 nM) was inactive: 0.681, the TEAD-luciferase reporter activity (compound concentration: 2 uM) is inactive: -0.748 and the TEAD-luciferase reporter activity (compound concentration: 10 uM) was inactive: 3.11.

For `CC(C)(C)NC(=O)C1CCC2C3CCC4NC(=O)C=CC4(C)C3CCC12C` (stereo unspecified) [finasteride], the TEAD-luciferase reporter activity (compound concentration: 200 nM) was inactive: -1.26, the TEAD-luciferase reporter activity (compound concentration: 2 uM) is inactive: -1.21 and the TEAD-luciferase reporter activity (compound concentration: 10 uM) is inactive: -0.626.
